The text below walks through data of paper PMC5382584, “In search of tail-anchored protein machinery in plants: reevaluating the role of arsenite transporters” (Scientific Reports, 2017).

Protein sequences, listed by entry. Tags and fused reporters are not part of them.
UniProt P60468: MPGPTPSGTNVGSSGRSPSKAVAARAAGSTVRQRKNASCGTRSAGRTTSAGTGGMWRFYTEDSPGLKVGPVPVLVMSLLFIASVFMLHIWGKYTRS

Experiment [1] deals with full length human Sec61β with a C-terminal 6xHis-tag (human) (UniProt P60468). In words: pull-down; co-expression in E. coli BL21 (DE3) of untagged ArsA protein (pET21) with C-terminally His-tagged TA protein (pET28); IMAC (Ni-NTA) co-purification from the soluble lysate, washes with 50 and 100 mM imidazole, elution with 250 mM imidazole, SDS-PAGE; bands confirmed by mass spectrometry for Cr-ArsA1/Cr-TOC34-NTC.

In experiment [2] the target is T1, Cr-TOC34-NTC domain (NTC region of TOC34) with a C-terminal His-tag (C. reinhardtii).
T1 sequence: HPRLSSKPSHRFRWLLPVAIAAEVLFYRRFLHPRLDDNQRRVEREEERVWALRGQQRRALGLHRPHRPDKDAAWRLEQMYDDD
Described as above.

Experiment [3] concerns the target Cr-ArsA1 (C. reinhardtii ArsA1), recombinant, purified after cleavage from GST (C. reinhardtii) (UniProt A8JGB0). In words: SEC; preparative size-exclusion chromatography of the purified protein, Superdex-200-16/600GL column; oligomeric state from peak positions; both purified. In general terms: SEC sorts molecules by how far they enter the pores of the column.

No constants are given. Whether binding was seen depends on the method and setting. For part of these data: Binding seen in cells or lysates may run through a third protein. Some entries that bind do so weakly or less than the wild type. Tags and fused reporters may be left off the sequences shown.

B1: Cr-ArsA2 (C. reinhardtii ArsA2), recombinant, purified (natural protein, UniProt A8IXB8 1-362, looked up)
chain: MAADMPDPTLQNVVDQKELKWIFVGGKGGVGKTTTSSSLAVALAESGTRNRVLIISTDPAHNLSDAFRQKFTKTPTLVNGFTNLFAMEVDPQPDIGEMEQLEWAQDSFLTELAGSIPGIDEAMSFAEVMKQVQTMDYDTIVFDTAPTGHTLRLLNFPTILEKGLSKLVALKGAMGGMMGQVTRMLGGMAGGGEGAADLPDQLLGKVEGMLDVVRKVSAQFKDPLLTTFVAVCIPEFLSLYETERLVQELAKFEIDCRNIVINQIIFPESVGGSRLLDARVRMQQKYLDQFYELYEDFHILQLPLLEEEVRGPEALKAFAVNLLKPYVPAPPTDAAARQAALVSEVAALKKRVAELEAALAKK
notes: ArsA2 of Chlamydomonas reinhardtii, full-length open reading frame, one ATPase domain; pET21 modified with a TEV site between the N-terminal 6His-tag and the polylinker; Seen as dimers and tetramers; also called Dimeric Cr-ArsA2; arsenite transporter ArsA2; source: E. coli BL21 (DE3), purified (Ni-NTA, size-exclusion chromatography)
As to B1, the binding result in experiment [1] was “binds”.

B2: native Cr-ArsA1, co-expressed without tag (protein, UniProt A8JGB0 1-777)
chain: MALASGNRLGSARGQTCADASGRVAPRLLSRACSGSPLALGVLACLGAASSVKPHPRLPATTSAASAPLPARGPAPCAAVPTVVTPDNATGVFEELAAGQQRKYIMISGKGGVGKTSLSASLAVKLAAAGHTTLVVSTDPAHSLSDSLAQDVSGGRPVLLQGTDLPLWGLEIDPEEAKREFFEGSGAGQDGEAGGPSAASQVSDFMNRMGMGFVIDQLKELKLGELLNTPPPGLDEAVAIAKVVQFVQAAEYARFSRIVFDTAPTGHTLRLLALPDFVDASLAKVIRLRKKLNGATSVVRGLFGAGESQDEAVEKLELLQQRVRMVKALFRDKTQTEFIIATIPTYLGVNESSRLLQALRAEQIPCKRIIVNQIVGPQQGDAYLRMKMKDQIAALEMVANDPGLRPLRKVIAPMVDVEVRGVPALSYFGNVVWKDVYDQMNQGADRKFFLLGGKGGVGKTSCSSSLAVHFANDGLPTLVVSTDPAHSLSDAFDQDLSGGSPVKITSPLGDELPLWGLQLDPEQAKAELRAVLADDGGKKLNETLDGLGLGVISDQLKDLQLGELLDTPPPGVDEAIAIAKVVQFLKAPEYSHFKRIVFDTAPTGHTLRLLSLPDFLDASIGKLVRLRQKLSAATSAVKNLFSGGQPGEEDVAVKRLEALQASMEDAKAMFRNQQTTEFIIVTIPTVMATAESCRLASALQHEGIPLKTIIVNQVVQANATDKFLTARRADQARALHHLEEDTGPDGLASLQLIKAPLCDLEVRGVPALSYFGNVVWK
On to B2, for which the binding entry in experiment [2] is recorded as “binds”.

B3: Cr-ArsA1 (C. reinhardtii ArsA1), recombinant, purified after cleavage from GST (protein, UniProt A8JGB0 1-777)
chain: MALASGNRLGSARGQTCADASGRVAPRLLSRACSGSPLALGVLACLGAASSVKPHPRLPATTSAASAPLPARGPAPCAAVPTVVTPDNATGVFEELAAGQQRKYIMISGKGGVGKTSLSASLAVKLAAAGHTTLVVSTDPAHSLSDSLAQDVSGGRPVLLQGTDLPLWGLEIDPEEAKREFFEGSGAGQDGEAGGPSAASQVSDFMNRMGMGFVIDQLKELKLGELLNTPPPGLDEAVAIAKVVQFVQAAEYARFSRIVFDTAPTGHTLRLLALPDFVDASLAKVIRLRKKLNGATSVVRGLFGAGESQDEAVEKLELLQQRVRMVKALFRDKTQTEFIIATIPTYLGVNESSRLLQALRAEQIPCKRIIVNQIVGPQQGDAYLRMKMKDQIAALEMVANDPGLRPLRKVIAPMVDVEVRGVPALSYFGNVVWKDVYDQMNQGADRKFFLLGGKGGVGKTSCSSSLAVHFANDGLPTLVVSTDPAHSLSDAFDQDLSGGSPVKITSPLGDELPLWGLQLDPEQAKAELRAVLADDGGKKLNETLDGLGLGVISDQLKDLQLGELLDTPPPGVDEAIAIAKVVQFLKAPEYSHFKRIVFDTAPTGHTLRLLSLPDFLDASIGKLVRLRQKLSAATSAVKNLFSGGQPGEEDVAVKRLEALQASMEDAKAMFRNQQTTEFIIVTIPTVMATAESCRLASALQHEGIPLKTIIVNQVVQANATDKFLTARRADQARALHHLEEDTGPDGLASLQLIKAPLCDLEVRGVPALSYFGNVVWK
On to B3, for which, in experiment [3], the binding entry is “no binding”.
